Values quoted from earlier work, collected in patent publication US8940724B2, “Quinoline derivitives and their uses” (Amgen Inc., priority 2009, dated 2015).
pIC50: −log10 of the molar value. Like-named read-outs stand apart in the source and are kept apart here. At least one structure is not confirmed: it was looked up by name or label, or the drawing left a doubt.

Legend:
Class I PI 3-kinases = details: each of the four Class I isoforms, cited from earlier work
superoxide release = details: neutrophils; cited from earlier work
neutrophil migration = details: cited from earlier work

Row | SMILES | pIC50 (Class I PI 3-kinases; read-out: IC50 values against each of these PI 3-kinases) | superoxide release (superoxide release) | neutrophil migration (neutrophil migration) | pIC50 (Class I PI 3-kinases; read-out: IC50 values against each of the various Class I PI 3-kinases)
1 | O=c1cc(N2CCOCC2)oc2c(-c3ccccc3)cccc12 [LY294002] | ~6.00 | block | block | 
2 | COC[C@H]1OC(=O)c2coc3c2[C@@]1(C)C1=C(C3=O)[C@@H]2CCC(=O)[C@@]2(C)C[C@H]1OC(C)=O [wortmannin] |  | block | block | 8.00 to 9.00
